Experimental findings from PubChem BioAssay AID1347426 (Functional Genomics Laboratory (NCATS/FGL), 2020) are described below.

Screen size: about 31,000 sequences; about 1,400 (4.5%) were called active.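 Rule for the calls: active = median seed-adjusted z-score above 1 or below -1; inactive = the rest.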 The list shows a part of the results.

The nature of this test: Novel Modifiers of Survival Motor Neuron (SMN) Protein: Gene Identification via Genome-wide siRNA Screen.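 Note: luminescence tracks full-length SMN protein made from the SMN2 reporter.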 As to conditions: HEK293T SMN2-luciferase reporter, siRNA knockdown, 72 h; actives lie on both sides. In short, it runs like this:
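siRNA screen, 10418 genes ×3 siRNAs; 1 pmol/well, lipid reverse transfection into HEK293T SMN2-luc reporter line. 72 h, 37 °C, 5% CO2; ONE-Glo readout. Data: neg-ctrl normalized, log10, MAD; hit = MAD >1.0 or < -1.0.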
A general note: In a reporter assay the amount or activity of a reporter protein is the signal.
As to AUGUGCACCUGACUACUCATT against KRT35, the median seed-adjusted z-score was inactive: -0.1. For GGAUGGGUUUUGAUAUGAATT against MTMR3, the median seed-adjusted z-score is inactive: 0.281. For the sequence CCUCACUUGUGAAUCUUUATT against RNF4, the median seed-adjusted z-score was inactive: 0.787.

For the sequence CCACGAUCAUUCAGCUGCATT against PROCR, the median seed-adjusted z-score was inactive: -0.476. The figure for GGAUCUUCUGACCAGCUCATT against ZNF773 is inactive: 0.345; for GUCGGAAGGUGAUUGAAUATT against PDIA2 it is inactive: 0.151. The figure for GCCUGACUUCGACUGCUCATT against GFER is inactive: 0.402.

With CCAUCAACCAGAUAGGCAATT against MATN1, the median seed-adjusted z-score is inactive: -0.271. The figure for GAACAUUGGUUCUUAGAGATT against MKRN2 is inactive: 0. Take UCAUCUUCAUCGACCGGAATT against AGPAT1: the median seed-adjusted z-score is active: -1.38. Regarding UCCAGACCCUAGUACCUAATT against CASP5, the median seed-adjusted z-score was inactive: 0.655.

Consider ACACGAUUAGAUUCAAGCATT against SIK1, for which the median seed-adjusted z-score is inactive: 0.887. For CGAUAUAAGCUCCGAGAGATT against POLR2E, the median seed-adjusted z-score is active: -1.25. The figure for GCAACAUCCUGGUUUUCGATT against LRP2 is inactive: -0.512.

On to AGGCAGAACUUUUGGAAAATT against TCF15, for which the median seed-adjusted z-score is inactive: -0.361. For AGAGUUGGUGGUCCAGAUATT against BTNL9, the median seed-adjusted z-score is inactive: 0.0189. As for GGACCAACCCAGAAUCGUATT against MAOB, the median seed-adjusted z-score was inactive: 0.

Regarding GGAUGUCUAGAUUACAUUUTT against PDE12, the median seed-adjusted z-score was inactive: 0.422. With GGUGGUUACCUGCAACUAUTT against POLI, the median seed-adjusted z-score was inactive: 0.857.

With AGACUGACCUCAACCAUGATT against CKM, the median seed-adjusted z-score was inactive: -0.189. With GGAAGGAGGUGACUAUGGATT against PLA2G4D, the median seed-adjusted z-score is inactive: -0.233. CUGGGUGCCUGAUAUCUUUTT against GABRR3: the median seed-adjusted z-score is inactive: 0.368.

With GCACAGUAGUCACCAAUGATT against FUCA2, the median seed-adjusted z-score is inactive: 0.562. Turning to GGCUAGUGGUCAACAAUCATT against TFR2, the median seed-adjusted z-score is inactive: 0.965. With CAAUCAUCCCAGACGAUCATT against GATM, the median seed-adjusted z-score was inactive: 0.182. For CGGUGCUGUUCGUCGUCUATT against GJD3, the median seed-adjusted z-score was inactive: -0.251. In the case of AGAUUGCUGGGAUUCCCUATT against RAB36 it was inactive: -0.348; in that of CAGUGGAAAUCGAGCAGGATT against HCN3, inactive: 0.301; in that of GUCCUAUCACCGUAUCUUATT against SF3B4, active: -2.56.

Consider CAGGUUCUAUGAAUUUGAATT against PHF1, for which the median seed-adjusted z-score was inactive: -0.196. For GGCUAGUAAGGAACCAGGATT against GLCE, the median seed-adjusted z-score was inactive: 0.752. Turning to GUGCAACAGUAUACGUUAATT against CDH2, the median seed-adjusted z-score was inactive: -0.235. Regarding GCAGGUGUAUACUACGUGATT against G6PC, the median seed-adjusted z-score was inactive: -0.628. On to GCAUGAGAUUUUUACUUGATT against BDH1, for which the median seed-adjusted z-score was inactive: -0.0253.

As for GCAUCGCACCCAUUUAUGATT against ORC4L, the median seed-adjusted z-score was inactive: -0.286. As for GAAUAGAUCCUCUAAGUAUTT against MTMR9, the median seed-adjusted z-score was inactive: 0.133.

Consider CGUUAUGCCUGGUCUCCUATT against SPPL3, for which the median seed-adjusted z-score was inactive: 0.652. In the case of GAAGGAGAUUGGGCGGAUUTT against ETFB it was inactive: 0.0669; in that of GGCUCAAUGUGGAGCGUGUTT against AGAP3, inactive: 0.554; in that of GUAGCUCAUUUGUAAGGAATT against ZNF578, inactive: -0.808. On to CUUCCUCUAUGACAACUGATT against NRXN1, for which the median seed-adjusted z-score is inactive: 0.433.

GACUCUACAUGAAACUCCATT against GATA6: the median seed-adjusted z-score was inactive: 0.546. With AGACAAAUCUGAUCUUCUUTT against GADL1, the median seed-adjusted z-score is inactive: 0. For GUGGUAUUCUGACUGCUAATT against KRT9, the median seed-adjusted z-score was inactive: 0.545. In the case of AGGAAGAAUUUAAUCCUGATT against CYP26A1 it was inactive: 0.0569. As for GGGAAAAAGUUCUUGCGUATT against USP12, the median seed-adjusted z-score was inactive: 0.121. For the sequence CAAGCUAACUGAGAAGCAATT against AHCY, the median seed-adjusted z-score was inactive: -0.189. With GCGGAUUUCUUCUUAGUCATT against SLC17A3, the median seed-adjusted z-score is inactive: -0.296. In the case of CAGGAUACUUCAUUAUUCATT against AMPH, the median seed-adjusted z-score was inactive: -0.725. Consider GGAAGAAUGUGCUUGGUCATT against PFKM, for which the median seed-adjusted z-score was inactive: -0.362. In the case of CCGUUAGACCAGAACGGAATT against MGA it was inactive: 0.0136; in that of GCAUCACCCAAGUAGUUAUTT against SFXN2, inactive: 0.365; in that of GUAUGUCGCAGUAAACAAATT against DYNLL2, inactive: -0.201.

As to GCUUAUAGUUACUAUCAUUTT against CRLS1, the median seed-adjusted z-score was inactive: 0.555. As for GUAUCGAUAUUAGAGAAGATT against HESX1, the median seed-adjusted z-score was inactive: 0.3. For the sequence CCUUCAACCUUAUGAGGUUTT against ZNF404, the median seed-adjusted z-score is inactive: 0.574. For CGGUGAUGUUUGUAGCCUATT against TACR2, the median seed-adjusted z-score was inactive: 0.201. UCAUAUUCAGCAGAAUGAATT against TIMM9: the median seed-adjusted z-score is inactive: -0.371. For the sequence CCACUUCUCGGAAAACCCATT against SLC10A3, the median seed-adjusted z-score is inactive: -0.25. As to GCUUGUCCCGAGAUGUUUATT against RET, the median seed-adjusted z-score was inactive: -0.931. Consider GUACUGUGAUAAGAUGUUUTT against PLAGL2, for which the median seed-adjusted z-score was inactive: 0.0744. Regarding GAUCAAUGGUUAUCGAAUUTT against COL14A1, the median seed-adjusted z-score is inactive: 0.19. Consider GGUCGAAUUUUGGGUAUUATT against CBLB, for which the median seed-adjusted z-score was inactive: 0. In the case of GAAUUUCCGUGUGGAUGUATT against POLR1C, the median seed-adjusted z-score is inactive: -0.0299. For the sequence CCAUGAACAUCUUUGUCUATT against BCAT2, the median seed-adjusted z-score is inactive: 0.0438.

Take CUGUCAACCUUGAAGUUCATT against MORC1: the median seed-adjusted z-score was inactive: -0.719.

For the sequence CAACAGACCUACGAGCAAATT against BANK1, the median seed-adjusted z-score is inactive: 0.962. GCUGGAAUCUAACAAUAGATT against ROCK2: the median seed-adjusted z-score is inactive: -0.149.

As to CGUCUUCAGCUGUUUCGCATT against SOD3, the median seed-adjusted z-score is inactive: -0.0691.
